Measured values published in paper PMC11971272.
No constants are given. Whether binding was seen depends on the method and setting. Binding seen in cells or lysates may run through a third protein. Some entries that bind do so weakly or less than the wild type.

Amino acid sequences for entries named in this document (tags omitted).
UniProt Q96J02: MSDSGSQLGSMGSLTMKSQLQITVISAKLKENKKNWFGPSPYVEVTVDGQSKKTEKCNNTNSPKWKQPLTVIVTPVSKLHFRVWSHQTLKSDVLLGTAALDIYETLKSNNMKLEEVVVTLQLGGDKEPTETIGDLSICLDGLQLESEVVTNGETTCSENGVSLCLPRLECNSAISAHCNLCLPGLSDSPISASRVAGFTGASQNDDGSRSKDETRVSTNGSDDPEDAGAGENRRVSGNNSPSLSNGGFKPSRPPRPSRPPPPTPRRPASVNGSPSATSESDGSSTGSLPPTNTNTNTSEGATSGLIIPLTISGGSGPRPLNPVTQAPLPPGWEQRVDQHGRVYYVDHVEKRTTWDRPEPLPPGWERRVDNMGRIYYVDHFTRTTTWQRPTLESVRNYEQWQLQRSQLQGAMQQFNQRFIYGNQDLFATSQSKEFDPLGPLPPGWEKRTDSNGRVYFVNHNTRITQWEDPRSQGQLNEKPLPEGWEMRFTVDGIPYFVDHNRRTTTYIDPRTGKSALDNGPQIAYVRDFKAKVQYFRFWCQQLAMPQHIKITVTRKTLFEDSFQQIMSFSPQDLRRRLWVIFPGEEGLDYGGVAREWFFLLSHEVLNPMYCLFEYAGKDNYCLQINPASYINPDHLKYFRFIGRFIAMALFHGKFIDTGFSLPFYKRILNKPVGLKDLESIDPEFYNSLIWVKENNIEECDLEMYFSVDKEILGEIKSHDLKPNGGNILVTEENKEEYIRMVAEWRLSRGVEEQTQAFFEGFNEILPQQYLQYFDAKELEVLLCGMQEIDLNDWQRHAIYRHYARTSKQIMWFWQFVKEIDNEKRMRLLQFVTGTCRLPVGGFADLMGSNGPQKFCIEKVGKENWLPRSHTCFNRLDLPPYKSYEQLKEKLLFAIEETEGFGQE
UniProt O43353: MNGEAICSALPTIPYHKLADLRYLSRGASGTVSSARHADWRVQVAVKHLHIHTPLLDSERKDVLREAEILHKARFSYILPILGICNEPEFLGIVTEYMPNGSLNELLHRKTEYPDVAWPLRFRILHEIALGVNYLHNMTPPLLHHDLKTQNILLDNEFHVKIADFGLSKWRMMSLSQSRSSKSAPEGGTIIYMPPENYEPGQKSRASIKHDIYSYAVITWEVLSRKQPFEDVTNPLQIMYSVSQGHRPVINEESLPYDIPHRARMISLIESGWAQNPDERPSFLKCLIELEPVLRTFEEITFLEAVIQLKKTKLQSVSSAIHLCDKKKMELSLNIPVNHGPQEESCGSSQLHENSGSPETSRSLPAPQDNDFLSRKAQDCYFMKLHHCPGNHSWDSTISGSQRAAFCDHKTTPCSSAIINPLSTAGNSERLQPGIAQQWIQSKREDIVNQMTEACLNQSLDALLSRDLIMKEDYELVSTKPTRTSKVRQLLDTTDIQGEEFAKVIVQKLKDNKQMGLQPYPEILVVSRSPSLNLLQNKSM

Assays:
[1] = biological target: Flag-ITCH (E3 ubiquitin ligase ITCH) (UniProt Q96J02); assay: co-IP; HCT116 cells co-transfected with Flag-ITCH, Myc-RIPK2 and EGFP-YAP plasmids; unstimulated, or stimulated with MDP for 0, 1 and 2 h; equal amounts of protein loaded
[2] = biological target: ITCH (co-IP with YAP in control and RIPK2-KO HCT116 cells; construct not stated) (UniProt Q96J02); assay: co-IP; ITCH and YAP in HCT116 cells before and after RIPK2 knockout (CRISPR/Cas9)

Substance: EGFP-YAP (from UniProt P46937 1-504)
- binding [1]: binds

Substance: Myc-RIPK2 (receptor-interacting protein kinase 2) (from UniProt O43353 1-540) (enzyme)
- binding [1]: binds

Substance: YAP (co-IPs in SW480 and HCT116 cells; construct not stated) (from UniProt P46937 1-504)
- binding [2]: binds
